The list shows a part of the results.
What was measured:
Assay in all cases: glycan array binding signal (z-score within array); higher = stronger binding
Details in all cases: glycan notation: IUPAC condensed, linker removed
[1] = molecular target: Gal(b1-4)GlcNAc(b1-3)Gal(b1-4)GlcNAc(b1-2)[Gal(b1-4)GlcNAc(b1-3)Gal(b1-4)GlcNAc(b1-6)]Man(a1-6)[Gal(b1-4)GlcNAc(b1-3)Gal(b1-4)GlcNAc(b1-2)Man(a1-3)]Man(b1-4)GlcNAc(b1-4)GlcNAc
In short: (§1)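 The Consortium for Functional Glycomics database supplied 3228 glycan arrays, of which those lacking an available protein sequence were dropped. The binding signal, a within-array Z-score, was averaged across arrays of the same protein sequence and across linkers. Negative scores can be read as non-binding.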

[2] = molecular target: Gal(b1-4)GlcNAc(b1-3)Gal(b1-4)GlcNAc(b1-2)[Gal(b1-4)GlcNAc(b1-3)Gal(b1-4)GlcNAc(b1-6)]Man(a1-6)[Gal(b1-4)GlcNAc(b1-3)Gal(b1-4)GlcNAc(b1-2)Man(a1-3)]Man(b1-4)GlcNAc(b1-4)[Fuc(a1-6)]GlcNAc
In short: as §1

[3] = molecular target: Gal(b1-4)GlcNAc(b1-3)Gal(b1-4)GlcNAc(b1-3)Gal(b1-4)GlcNAc
In short: as §1

[4] = molecular target: Gal(b1-4)GlcNAc(b1-3)Gal(b1-4)GlcNAc(b1-3)Gal(b1-4)GlcNAc(b1-2)Man(a1-3)[Gal(b1-4)GlcNAc(b1-3)Gal(b1-4)GlcNAc(b1-3)Gal(b1-4)GlcNAc(b1-2)Man(a1-6)]Man(b1-4)GlcNAc(b1-4)GlcNAc
In short: as §1

[5] = molecular target: Gal(b1-4)GlcNAc(b1-3)Gal(b1-4)GlcNAc(b1-3)Gal(b1-4)GlcNAc(b1-2)Man(a1-3)[Gal(b1-4)GlcNAc(b1-3)Gal(b1-4)GlcNAc(b1-3)Gal(b1-4)GlcNAc(b1-2)Man(a1-6)]Man(b1-4)GlcNAc(b1-4)[Fuc(a1-6)]GlcNAc
In short: as §1

[6] = molecular target: Gal(b1-4)GlcNAc(b1-3)Gal(b1-4)GlcNAc(b1-3)Gal(b1-4)GlcNAc(b1-2)[Gal(b1-4)GlcNAc(b1-3)Gal(b1-4)GlcNAc(b1-3)Gal(b1-4)GlcNAc(b1-6)]Man(a1-6)[Gal(b1-4)GlcNAc(b1-3)Gal(b1-4)GlcNAc(b1-3)Gal(b1-4)GlcNAc(b1-2)Man(a1-3)]Man(b1-4)GlcNAc(b1-4)[Fuc(a1-6)]GlcNAc
In short: as §1

[7] = molecular target: Gal(b1-4)GlcNAc(b1-3)Gal(b1-4)GlcNAc(b1-3)Gal(b1-4)GlcNAc(b1-3)Gal(b1-4)GlcNAc(b1-2)Man(a1-3)[Gal(b1-4)GlcNAc(b1-3)Gal(b1-4)GlcNAc(b1-3)Gal(b1-4)GlcNAc(b1-3)Gal(b1-4)GlcNAc(b1-2)Man(a1-6)]Man(b1-4)GlcNAc(b1-4)GlcNAc
In short: as §1

[8] = molecular target: Gal(b1-4)GlcNAc(b1-3)Gal(b1-4)GlcNAc(b1-3)Gal(b1-4)GlcNAc(b1-3)Gal(b1-4)GlcNAc(b1-2)Man(a1-3)[Gal(b1-4)GlcNAc(b1-3)Gal(b1-4)GlcNAc(b1-3)Gal(b1-4)GlcNAc(b1-3)Gal(b1-4)GlcNAc(b1-2)Man(a1-6)]Man(b1-4)GlcNAc(b1-4)[Fuc(a1-6)]GlcNAc
In short: as §1

[9] = molecular target: Gal(b1-4)GlcNAc(b1-3)Gal(b1-4)GlcNAc(b1-3)Gal(b1-4)GlcNAc(b1-3)Gal(b1-4)GlcNAc(b1-2)[Gal(b1-4)GlcNAc(b1-3)Gal(b1-4)GlcNAc(b1-3)Gal(b1-4)GlcNAc(b1-3)Gal(b1-4)GlcNAc(b1-6)]Man(a1-6)[Gal(b1-4)GlcNAc(b1-3)Gal(b1-4)GlcNAc(b1-3)Gal(b1-4)GlcNAc(b1-3)Gal(b1-4)GlcNAc(b1-2)Man(a1-3)]Man(b1-4)GlcNAc(b1-4)[Fuc(a1-6)]GlcNAc
In short: as §1

[10] = molecular target: Gal(b1-4)GlcNAc(b1-3)Gal(b1-4)GlcNAc(b1-3)Gal(b1-4)GlcNAc(b1-3)Gal(b1-4)GlcNAc(b1-3)Gal(b1-4)GlcNAc(b1-2)Man(a1-3)[Gal(b1-4)GlcNAc(b1-3)Gal(b1-4)GlcNAc(b1-3)Gal(b1-4)GlcNAc(b1-3)Gal(b1-4)GlcNAc(b1-3)Gal(b1-4)GlcNAc(b1-2)Man(a1-6)]Man(b1-4)GlcNAc(b1-4)GlcNAc
In short: as §1

[11] = molecular target: Gal(b1-4)GlcNAc(b1-3)Gal(b1-4)GlcNAc(b1-3)Gal(b1-4)GlcNAc(b1-3)Gal(b1-4)GlcNAc(b1-3)Gal(b1-4)GlcNAc(b1-2)Man(a1-3)[Gal(b1-4)GlcNAc(b1-3)Gal(b1-4)GlcNAc(b1-3)Gal(b1-4)GlcNAc(b1-3)Gal(b1-4)GlcNAc(b1-3)Gal(b1-4)GlcNAc(b1-2)Man(a1-6)]Man(b1-4)GlcNAc(b1-4)[Fuc(a1-6)]GlcNAc
In short: as §1

[12] = molecular target: Gal(b1-4)GlcNAc(b1-3)Gal(b1-4)GlcNAc(b1-3)Gal(b1-4)GlcNAc(b1-3)Gal(b1-4)GlcNAc(b1-3)Gal(b1-4)GlcNAc(b1-2)[Gal(b1-4)GlcNAc(b1-3)Gal(b1-4)GlcNAc(b1-3)Gal(b1-4)GlcNAc(b1-3)Gal(b1-4)GlcNAc(b1-3)Gal(b1-4)GlcNAc(b1-6)]Man(a1-6)[Gal(b1-4)GlcNAc(b1-3)Gal(b1-4)GlcNAc(b1-3)Gal(b1-4)GlcNAc(b1-3)Gal(b1-4)GlcNAc(b1-3)Gal(b1-4)GlcNAc(b1-2)Man(a1-3)]Man(b1-4)GlcNAc(b1-4)[Fuc(a1-6)]GlcNAc
In short: as §1

[13] = molecular target: Gal(b1-4)GlcNAc(b1-3)Gal(b1-4)GlcNAc(b1-3)Gal(b1-4)GlcNAc(b1-3)Gal(b1-4)GlcNAc(b1-3)Gal(b1-4)GlcNAc(b1-3)Gal(b1-4)GlcNAc(b1-2)Man(a1-3)[Gal(b1-4)GlcNAc(b1-3)Gal(b1-4)GlcNAc(b1-3)Gal(b1-4)GlcNAc(b1-3)Gal(b1-4)GlcNAc(b1-3)Gal(b1-4)GlcNAc(b1-3)Gal(b1-4)GlcNAc(b1-2)Man(a1-6)]Man(b1-4)GlcNAc(b1-4)GlcNAc
In short: as §1

[14] = molecular target: Gal(b1-4)GlcNAc(b1-3)Gal(b1-4)GlcNAc(b1-3)GalNAc
In short: as §1

[15] = molecular target: Gal(b1-4)GlcNAc(b1-3)Gal(b1-4)GlcNAc(b1-3)[Gal(b1-4)GlcNAc(b1-3)Gal(b1-4)GlcNAc(b1-6)]GalNAc
In short: as §1

[16] = molecular target: Gal(b1-4)GlcNAc(b1-3)Gal(b1-4)GlcNAc(b1-6)[Gal(b1-3)]GalNAc
In short: as §1

[17] = molecular target: Gal(b1-4)GlcNAc(b1-3)Gal(b1-4)[Fuc(a1-3)]GlcNAc(b1-3)Gal(b1-4)[Fuc(a1-3)]GlcNAc
In short: as §1

[18] = molecular target: Gal(b1-4)GlcNAc(b1-3)GalNAc
In short: as §1

[19] = molecular target: Gal(b1-4)GlcNAc(b1-3)[Fuc(a1-3)GlcNAc(b1-6)]Gal(b1-4)Glc
In short: as §1

[20] = molecular target: Gal(b1-4)GlcNAc(b1-3)[Gal(b1-4)GlcNAc(b1-6)]Gal(b1-4)GlcNAc
In short: as §1

[21] = molecular target: Gal(b1-4)GlcNAc(b1-3)[GlcNAc(b1-6)]Gal(b1-4)GlcNAc
In short: as §1

[22] = molecular target: Gal(b1-4)GlcNAc(b1-6)Gal(b1-4)GlcNAc
In short: as §1

[23] = molecular target: Gal(b1-4)GlcNAc(b1-6)GalNAc
In short: as §1

[24] = molecular target: Gal(b1-4)GlcNAc(b1-6)[Gal(b1-3)]GalNAc
In short: as §1

[25] = molecular target: Gal(b1-4)GlcNAc(b1-6)[Gal(b1-4)GlcNAc(b1-3)]GalNAc
In short: as §1

Gal(b1-4)GlcNAc6P = molecular target: Gal(b1-4)GlcNAc6P
In short: as §1

Gal(b1-6)Gal = molecular target: Gal(b1-6)Gal
In short: as §1

Gal3S(b1-3)GalNAc = molecular target: Gal3S(b1-3)GalNAc
In short: as §1

Gal3S(b1-3)GlcNAc = molecular target: Gal3S(b1-3)GlcNAc
In short: as §1

[26] = molecular target: Gal3S(b1-3)[Fuc(a1-4)]GlcNAc
In short: as §1

Gal3S(b1-4)Glc = molecular target: Gal3S(b1-4)Glc
In short: as §1

Gal3S(b1-4)Glc6S = molecular target: Gal3S(b1-4)Glc6S
In short: as §1

Gal3S(b1-4)GlcNAc = molecular target: Gal3S(b1-4)GlcNAc
In short: as §1

[27] = molecular target: Gal3S(b1-4)[Fuc(a1-3)]Glc6S
In short: as §1

[28] = molecular target: Gal3S(b1-4)[Fuc(a1-3)]GlcNAc
In short: as §1

[29] = molecular target: Gal3S(b1-4)[Fuc(a1-3)]GlcNAc6S
In short: as §1

Gal3S4S(b1-4)GlcNAc = molecular target: Gal3S4S(b1-4)GlcNAc
In short: as §1

B1: GS7807G-bfa-506-18-506 (Bacteroides fragilis) (protein)
chain: ASCDKFDEINTDPDATTKVTSSLLATGLLLDITSSSASKSFIYDELLAKQMAWGESMEDYQYNVFGRSGFGGYTTLINAQKMVESVSDDNVNAYDGLAHFIKAYKIFYMSMEMGDLPYEEALQGELGLVRPKYNTQKEVMNFILSDLETAYELFSTAKDFDGDPILGGSISKWKKATTAFQLKVLMHLSKKESDADLKVKERFARIVASGSLMESNEDNLQMKYADKANTVYPFHNTNTKHAGYAMLSTMLIDKFKATGDIRMFYYAKPAKAKLNEGVTADSWDAYIGTDPSLPFEQIEKAYATEQYSGFNARYTDYPSGEPVVRLGYAEQNFILAEAAVRGWISGDASAYYKKAIRAHMEFIASNTPDEEVYHHGHPITEEAIAAFLETPAIQLSGEKEEDIEKILTQRYLASFMQHPYDVYYDYRRTGYPVLPINPATNRNTMNDRLPMRWMYPKSESDYNLEHQNEALERQFGGVDDVNKLMWILQ
glycan array binding signal (z-score) [1]: 1.76
glycan array binding signal (z-score) [2]: 1.31
glycan array binding signal (z-score) [3]: 0.029
glycan array binding signal (z-score) [4]: 2.64
glycan array binding signal (z-score) [5]: 5.99
glycan array binding signal (z-score) [6]: 2.78
glycan array binding signal (z-score) [7]: 2.25
glycan array binding signal (z-score) [8]: 2.3
glycan array binding signal (z-score) [9]: 1.5
glycan array binding signal (z-score) [10]: 0.719
glycan array binding signal (z-score) [11]: 1.55
glycan array binding signal (z-score) [12]: 4.67
glycan array binding signal (z-score) [13]: 2.54
glycan array binding signal (z-score) [14]: 0.91
glycan array binding signal (z-score) [15]: 0.328
glycan array binding signal (z-score) [16]: 0.824
glycan array binding signal (z-score) [17]: 1.29
glycan array binding signal (z-score) [18]: -0.443
glycan array binding signal (z-score) [19]: -0.29
glycan array binding signal (z-score) [20]: -0.844
glycan array binding signal (z-score) [21]: 0.009
glycan array binding signal (z-score) [22]: -0.133
glycan array binding signal (z-score) [23]: 1.51
glycan array binding signal (z-score) [24]: 1.48
glycan array binding signal (z-score) [25]: 1.86
glycan array binding signal (z-score) (Gal(b1-4)GlcNAc6P): -0.826
glycan array binding signal (z-score) (Gal(b1-6)Gal): 1.39
glycan array binding signal (z-score) (Gal3S(b1-3)GalNAc): -0.369
glycan array binding signal (z-score) (Gal3S(b1-3)GlcNAc): -0.195
glycan array binding signal (z-score) [26]: -0.435
glycan array binding signal (z-score) (Gal3S(b1-4)Glc): 0.262
glycan array binding signal (z-score) (Gal3S(b1-4)Glc6S): -0.407
glycan array binding signal (z-score) (Gal3S(b1-4)GlcNAc): -0.442
glycan array binding signal (z-score) [27]: 2.22
glycan array binding signal (z-score) [28]: -0.452
glycan array binding signal (z-score) [29]: -0.655
glycan array binding signal (z-score) (Gal3S4S(b1-4)GlcNAc): -0.454
